For at least one entry, the source does not settle the construct or the ends of the probe. For part of these data: Negatives hold for the conditions tested. For part of these data: At least one verdict was read from the data and is not stated in words by the source. For part of these data: The comparison behind a weaker result is the experiment's own reference, which may not be listed here.

Amino acid sequences for entries named in this document (tags omitted). A change or cut given only in a name is not applied to a line headed by its entry.
UniProt Q60749: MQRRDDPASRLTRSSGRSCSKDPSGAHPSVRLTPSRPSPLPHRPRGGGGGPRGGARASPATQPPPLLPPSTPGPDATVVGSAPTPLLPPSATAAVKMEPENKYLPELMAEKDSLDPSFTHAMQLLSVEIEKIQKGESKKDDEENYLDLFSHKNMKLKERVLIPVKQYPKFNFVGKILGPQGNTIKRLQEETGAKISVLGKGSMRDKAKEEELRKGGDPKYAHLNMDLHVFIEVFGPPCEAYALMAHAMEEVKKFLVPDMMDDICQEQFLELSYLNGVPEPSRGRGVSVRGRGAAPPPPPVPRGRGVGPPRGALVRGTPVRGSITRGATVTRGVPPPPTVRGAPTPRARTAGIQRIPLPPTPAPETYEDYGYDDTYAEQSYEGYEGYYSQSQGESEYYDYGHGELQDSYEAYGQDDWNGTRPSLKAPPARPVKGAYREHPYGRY

One data set relates to His-SLM-2. The data set is described as follows: EMSA. The settings on record: affinity like SRE-4wt (not shown); EMSA: 20 mM HEPES pH 7.4, 330 mM KCl, 10 mM MgCl2, 0.1 mM EDTA, 0.1 mg/ml heparin, 0.01% IGEPAL CA630, room temperature, 1 h; recombinant protein; protein details: His; label: 32P. On the technique in general: In EMSA bound probe runs differently from free probe, usually more slowly.
Consider “UUUGGGGGUUCAAUAAAAAUUUUCACUAUCCUAUUAACAGUUCCGCCGCUCC [SRE-4 (52-mer)]”, for which the binding result is given as “binds”.

A further data set deals with His-GSG(SAM68) (mouse) (UniProt Q60749). In words: EMSA. The settings on record: EMSA: 20 mM HEPES pH 7.4, 330 mM KCl, 10 mM MgCl2, 0.1 mM EDTA, 0.1 mg/ml heparin, 0.01% IGEPAL CA630, room temperature, 1 h; recombinant protein; protein details: His; label: 32P.
As to “GGUUCUAUAAAAAUUUUCACUAUCCUACCCCCAGUUCC [SRE-4m3]”, the binding result is “no binding”.

Take “GGUUCUAUACCCCCUUUCACUAUCCUAUUAACAGUUCC [SRE-4m4]”: the binding result was “no binding”.

As to “GGUUCUAUAAAAAUUUUCACUAUCCUAUUAACAGUUCC [SRE-4wt]”, the binding result is recorded as “binds”.

As to “GGUUCUACCCCAAUUUUCACUAUCCUACCCCCAGUUCC [SRE-4m1]”, the binding result is “no binding”.

For the sequence “GGUUCUACCCCAAUUUUCACUAUCCUAUUAACAGUUCC [SRE-4m2]”, the binding result is on record as “binds more weakly”.

The record behind these values is paper PMC2697983.
